Measured values: US20130326728A1, “AGENTS FOR INCREASED RESISTANCE AGAINST OXIDATIVE STRESS CONDITIONS” (KATHOLIEKE UNIVERSITEIT LEUVEN, priority 2010, published 2013)

Tested on: transcriptionally active regions (OSIP-encoding regions)
Assay: Tiling array identification of paraquat-induced OSIP-encoding regions (log2 ratio paraquat vs control)
Design: species or system Arabidopsis thaliana
Conditions: A. thaliana leaves, 48 h after paraquat vs mock

Sequence | log2 ratio upon paraquat treatment in the tiling array
MGLNEDSVFRSIKPFKSP (listed as Arabidopsis thaliana) [OSIP163] | 5.07
MLCVLQGLRE (listed as Arabidopsis thaliana) [OSIP108] | 5.42
MNVLARAPRLRHQLQNLTQDRRKTQMQMKGQRVRTTSLQ (listed as Arabidopsis thaliana) [OSIP152] | 4.74
